From PMC6273473 (Molecules, 2016)

System: P-gp (MDR1)
Assay: in vitro
Conditions: dog, MDCK-MDR1, pH 7.4

CN1C(=O)CN=C(c2ccccc2)c2cc(Cl)ccc21 [diazepam, reference compound]
Papp B→A at 120 min, 75 µM: 12.3 ×10⁻⁶ cm/s
